# Results as given in PubChem BioAssay AID540256 (National Center for Advancing Translational Sciences (NCATS), 2011).
# About 3,700 (1.2%) of roughly 300,000 compounds were called active. The shares of active, inactive and inconclusive entries below differ from those in the screen. Calls come from the whole dose curve; tested in HEK293 cells. Potencies beside an inconclusive call are fits to weak or partial responses and may not hold up.
# Assay: qHTS for Inhibitors of binding or entry into cells for Lassa Virus; note: nearly all actives have a fitted effect of over 50% in size
# Conditions: Lassa virus pseudotype entry inhibition, cell reporter; activity change, negative = inhibition: at 37.9 µM (top of the series) unless noted
# % is set by controls: 0 for no effect and ±100 for the full control effect; potency is the fitted concentration of half-maximal effect.
Structure (SMILES),Potency,"activity change, negative = inhibition"
CC1CCN(C(=O)NC(=O)c2ccc(Cl)cc2)CC1,"inconclusive: 11.2 µM [activator, partial curve, poor fit]",–
COc1cc(Nc2c3ccccc3nc3ccccc23)cc(OC)c1OC,"inconclusive: 0.562 µM [inhibitor, full curve, poor fit]",–
COc1ccc(S(=O)(=O)N/N=C/c2ccc(OCCN3CCOCC3)c(OC)c2)cc1,"inconclusive: 35.5 µM [activator, single point]",–
Cn1c(=O)c2c(ncn2CC(=O)OCC(=O)Nc2sccc2C(N)=O)n(C)c1=O,"inconclusive: 3.16 µM [inhibitor, partial curve, poor fit]",–
CCOC(=O)c1c(S(=O)(=O)NCC(=O)Nc2cccc(CC)c2)c(C)n(C)c1C,"inconclusive: 1.58 µM [activator, partial curve, poor fit]",–
COc1ccc(NC(=O)c2ccc(OC(F)F)cc2)cc1Cl,"inconclusive: 35.5 µM [inhibitor, single point]",–
COc1ccc(C2c3[nH]c4ccccc4c3CCN2Cc2cccn2-c2ncccn2)cc1C (stereo not drawn),"inconclusive: 35.5 µM [inhibitor, single point]",–
Clc1cccc(-c2csc(-c3nc(-c4ccc(Br)s4)cs3)n2)c1,"inconclusive: 5.62 µM [activator, single point]",–
O=C(Nc1ccc(O)c(-c2nc3ccccc3s2)c1)C1=COCCO1,–,inactive: 11.6%
O=C(c1ccc(Cl)cc1)N1CCN(c2ccc([N+](=O)[O-])c3ncccc23)CC1,"inconclusive: 9.2 µM [inhibitor, partial curve]",–
COC(=O)c1ccc2nc(Nc3nc4ccc(F)cc4s3)sc2c1,active: 6.31 µM,–
O=C(CSc1nccc(=O)[nH]1)N1c2ccccc2CCc2ccccc21,"inconclusive: 0.13 µM [inhibitor, full curve, poor fit]",–
COc1cc(CNn2nnnc2N)cc(Br)c1OCC(=O)NC(C)(C)C,–,inactive: 3.83%
COc1ccc(C=C(c2nc3ccccc3s2)c2nc3ccccc3s2)cc1O,"inconclusive: 20.6 µM [inhibitor, partial curve, poor fit]",–
O=[N+]([O-])c1cccc(NNS(=O)(=O)c2ccccc2F)c1,"inconclusive: 11.2 µM [inhibitor, partial curve, poor fit]",–
c1ccc(Cn2nnc3c(Nc4ccc5c(c4)OCO5)nc(C4CC4)nc32)cc1,"inconclusive: 29.1 µM [inhibitor, single point]",–
COc1cccc(CNC(=O)Cn2cc3c(n2)-c2c(oc(C(=O)N4CCCC4)c2C)CC3)c1,"inconclusive: 5.01 µM [inhibitor, full curve, poor fit]",–
COc1ccc(NC(=O)/C(C#N)=C/c2cc(C)n(-c3ccc(N4CCOCC4)c([N+](=O)[O-])c3)c2C)cc1,"inconclusive: 1.12 µM [inhibitor, full curve, poor fit]",–
CCc1ccc(NC(=O)Cn2ncc3c4ccccc4n(C)c3c2=O)cc1,"inconclusive: 31.6 µM [activator, single point]",–
CSc1ccccc1NC(=O)CN(C)CC(=O)Nc1cccc(Br)c1,"inconclusive: 15.8 µM [inhibitor, single point]",–
CC(C)c1nc(N2CCOCC2)c(C#N)c2c1COC(C)(C)C2,"inconclusive: 0.92 µM [inhibitor, partial curve, poor fit]",–

Structure (SMILES),Potency,"activity change, negative = inhibition"
COc1cccc(C(CC2=CCCCC2)NC(=O)C(F)(F)F)c1 (stereo not drawn),"inconclusive: 2.99 µM [activator, single point]",–
O=C(CNC(=S)N(Cc1ccccc1F)C1CCCCC1)NCC1CCCO1 (stereo not drawn),active: 4.47 µM,–
CCOC(=O)c1scc(-c2ccc(C)cc2)c1S(=O)(=O)Nc1cc(Cl)ccc1OC,"inconclusive: 10 µM [inhibitor, partial curve, poor fit]",–
CCn1c(SCC(=O)c2ccc([N+](=O)[O-])cc2)nnc1-c1ccc(Cl)cc1,–,inactive: 6.88% [at 46.1 µM]
CC1=CC(C)C(C(=O)O)C(C(=O)O)C1 (stereo not drawn),–,inactive: 1.79%
O=C(CC1N=C2c3ccccc3N=C(SCc3ccc(F)cc3)N2C1=O)NCc1cccs1 (stereo not drawn),"inconclusive: 20 µM [inhibitor, single point]",–
COc1ccc(C(=O)CSc2nnc(Cc3ccccc3)o2)cc1,"inconclusive: 29.1 µM [inhibitor, single point]",–
C=CCn1c(=S)[nH]c2scc(-c3ccc(C)o3)c2c1=O,–,inactive: 24.6%
O=C(OCC(=O)N1CCCCC1)c1cc(S(=O)(=O)N2CCOCC2)c(Cl)cc1Cl,"inconclusive: 5.62 µM [inhibitor, single point]",–
COc1ccccc1N=CC1=C(O)CC(c2ccccc2)CC1=O (stereo not drawn),"inconclusive: 7.08 µM [inhibitor, full curve, poor fit]",–
Cc1nc(N[C@@H](Cc2ccccc2)C(=O)O)c2oc3ccccc3c2n1,"inconclusive: 6.31 µM [inhibitor, single point]",–
Brc1ccc(CSc2ccc(-c3ccco3)nn2)cc1,"inconclusive: 5.62 µM [activator, partial curve, poor fit]",–
Cc1cc(SCC(=O)OCC(=O)N(CCC#N)c2ccccc2)nc2ccccc12,–,inactive: -6.58%
O=C(CSc1nc2ccccc2s1)N/N=C/c1cc([N+](=O)[O-])ccc1O,–,inactive: -19.3% [at 46.1 µM]
C=CCn1c(-c2ccc3[nH]c(C)c(C)c3c2)n[nH]c1=S,"inconclusive: 8.91 µM [inhibitor, partial curve, poor fit]",–
CC(C)(C)OC(=O)N1CCCC(C(=O)Nc2cccc(C(=O)NCCc3ccccc3)c2)C1 (stereo not drawn),"inconclusive: 2.81 µM [activator, full curve, poor fit]",–
COCC1CCN(C(=O)c2cc(COc3ccc(OC)c4ccccc34)on2)C1 (stereo not drawn),"inconclusive: 35.5 µM [inhibitor, single point]",–
C/C(Cn1nc([N+](=O)[O-])cc1C)=N\NC(=O)c1cccc(Br)c1,–,inactive: 10.7%
O=C(NCCSc1ccccn1)c1ccc(Cl)cc1,"inconclusive: 7.08 µM [inhibitor, partial curve, poor fit]",–
COc1ccc(C2CC(c3cccs3)=NN2C(=O)c2ccccc2)cc1OC (stereo not drawn),–,inactive: -9.29%
O=c1[nH]c(/C=C/c2ccc(OC(F)F)cc2)nc2c1cnn2-c1ccccc1,"inconclusive: 22.4 µM [inhibitor, partial curve, poor fit]",–

# Complete entries, looked up by structure. Values in the order: Potency | activity change, negative = inhibition
# `C=CCn1c(=S)[nH]c2scc(-c3ccc(C)o3)c2c1=O` as listed: – | inactive: 24.6%
# `Brc1ccc(CSc2ccc(-c3ccco3)nn2)cc1` as listed: inconclusive: 5.62 µM [activator, partial curve, poor fit] | –

# Ordered by SMILES length (rising): part of the list above
Structure (SMILES),Potency,"activity change, negative = inhibition"
O=C(Nc1ccc(O)c(-c2nc3ccccc3s2)c1)C1=COCCO1,–,inactive: 11.6%
O=C(CSc1nc2ccccc2s1)N/N=C/c1cc([N+](=O)[O-])ccc1O,–,inactive: -19.3% [at 46.1 µM]
COc1cccc(CNC(=O)Cn2cc3c(n2)-c2c(oc(C(=O)N4CCCC4)c2C)CC3)c1,"inconclusive: 5.01 µM [inhibitor, full curve, poor fit]",–

# Carrying on.

Structure (SMILES),Potency,"activity change, negative = inhibition"
CCOc1ccc(S(=O)(=O)N2CCN(c3ccc(Cl)c(Cl)c3)CC2)c2ccccc12,"inconclusive: 6.31 µM [inhibitor, single point]",–
CCN(C(=O)c1cnc(OC)cc1C(F)(F)F)c1ccc(Cl)cc1,"inconclusive: 5.62 µM [inhibitor, single point]",–
O=C1C=C(NC2=CC3OC(c4ccccc4)OCC3OC2=O)CCC1 (stereo not drawn),active: 10 µM,–
CC1CC1C(=O)Nc1nc(-c2ccccc2)cs1 (stereo not drawn),"inconclusive: 8.91 µM [inhibitor, partial curve]",–
O=C(COC(=O)CNC(=O)c1ccc(Cl)cc1Cl)NCC1CCCO1 (stereo not drawn),–,inactive: 15%
N#C/C(=C/c1cn(-c2ccccc2)nc1-c1cccc(S(=O)(=O)N2CCCC2)c1)C(=O)NCc1ccco1,"inconclusive: 0.291 µM [inhibitor, partial curve, poor fit]",–
CC(=O)c1c(N2CCN(c3ccccc3)CC2)nc(=S)n(-c2ccccc2)c1C,"inconclusive: 35.5 µM [inhibitor, partial curve, poor fit]",–
CCOC(=O)c1c(C)[nH]c(CCC(=O)NCCCN2CCN(c3cc(C)ccc3C)CC2)c1C,"inconclusive: 35.5 µM [inhibitor, single point]",–
CCCn1c(NC(=O)C2CCN(S(=O)(=O)c3cccs3)CC2)nc2ccccc21,"inconclusive: 17.8 µM [inhibitor, single point]",–
COc1cccc2c1[C@H](C=Cc1ccccc1)[C@@H]([C@H](O)CO)OC2,–,inactive: -30.6% [at 14.3 µM]
Cc1cc(NC(=O)CSc2nc(Cc3ccccc3)c(C)[nH]2)no1,"inconclusive: 35.5 µM [activator, single point]",–
CCCCSc1nnc(-c2ccc(C)cc2)n1C,"inconclusive: 8.2 µM [activator, partial curve]",–
COc1ccc(C2NC(=O)NC(c3ccccc3)=C2c2nc3ccccc3s2)cc1 (stereo not drawn),"inconclusive: 8.2 µM [inhibitor, partial curve, poor fit]",–
Nc1ncc(-c2ccccc2)c(-c2ccc(OCc3ccccc3)cc2O)n1,"inconclusive: 18.3 µM [inhibitor, partial curve, poor fit]",–
COC(=O)c1ccc(Cn2cc(/C=C\[N+](=O)[O-])c3ccccc32)o1,"inconclusive: 35.5 µM [inhibitor, single point]",–
CC(C)c1ccc(OCC(=O)Nc2ccc(OC(F)(F)F)cc2)cc1,–,inactive: 1.17%
CCN(CC)S(=O)(=O)c1ccc(NC(=O)CCc2c(C)nc3cc(-c4ccc(Cl)cc4)nn3c2C)cc1,"inconclusive: 10 µM [inhibitor, partial curve]",–
O=C(O)c1ccc(N=c2oc3cc(O)ccc3cc2C(=O)NCc2ccccc2)cc1,–,inactive: 8.31%
COc1ccc(-c2[nH]c3ccccc3c2SCCNC(=O)c2ccccc2)cc1,"inconclusive: 25.9 µM [inhibitor, partial curve, poor fit]",–
C#CCOCC#CC[C@@]1(C(=O)OC)C=C[C@@H](C)[C@H](c2ccccc2Br)N1C(=O)C(F)(F)F,"inconclusive: 2.11 µM [inhibitor, partial curve, poor fit]",–
Cc1cc(NC(=O)c2ccccc2Cl)no1,"inconclusive: 3.55 µM [activator, partial curve, poor fit]",–
